From patent US12378320B2, “Methods for treating pancreatitis” (Cold Spring Harbor Laboratory, priority 2018, dated 2025)

B1: P17182 (protein, UniProt P17182 1-434, looked up)
chain: MSILRIHAREIFDSRGNPTVEVDLYTAKGLFRAAVPSGASTGIYEALELRDNDKTRFMGKGVSQAVEHINKTIAPALVSKKVNVVEQEKIDKLMIEMDGTENKSKFGANAILGVSLAVCKAGAVEKGVPLYRHIADLAGNPEVILPVPAFNVINGGSHAGNKLAMQEFMILPVGASSFREAMRIGAEVYHNLKNVIKEKYGKDATNVGDEGGFAPNILENKEALELLKTAIAKAGYTDQVVIGMDVAASEFYRSGKYDLDFKSPDDPSRYITPDQLADLYKSFVQNYPVVSIEDPFDQDDWGAWQKFTASAGIQVVGDDLTVTNPKRIAKAASEKSCNCLLLKVNQIGSVTESLQACKLAQSNGWGVMVSHRSGETEDTFIADLVVGLCTGQIKTGAPCRSERLAKYNQILRIEEELGSKAKFAGRSFRNPLAK
modifications: full-length
B2: O35490 (protein, UniProt O35490 1-407, looked up)
chain: MAPVAGKKAKKGILERLNAGEVVIGDGGFVFALEKRGYVKAGPWTPEAAVEHPEAVRQLHREFLRAGSNVMQTFTFYASEDKLENRGNYVAEKISGQKVNEAACDIARQVADEGDALVAGGVSQTPSYLSCKSEVEVKKIFRQQLEVFMKKNVDFLIAEYFEHVEEAVWAVEALKASGKPVAATMCIGPEGDLHGVPPGECAVRLVKAGASIVGVNCHFDPSVSLQTVKLMKEGLEAARLKAYLMSQPLAYHTPDCGKQGFIDLPEFPFGLEPRVATRWDIQKYAREAYNLGVRYIGGCCGFEPYHIRAIAEELAPERGFLPPASEKHGSWGSGLDMHTKPWIRARARKEYWQNLRIASGRPYNPSMSRPDAWGVTKGAAELMQQKEATTEQQLRELFEKQKFKSAQ
modifications: full-length
B3: Q06890 (protein, UniProt Q06890 1-448, looked up)
chain: MKILLLCVALLLIWDNGMVLGEQEVSDNELQELSTQGSRYINKEIQNAVQGVKHIKTLIEKTNAERKSLLNSLEEAKKKKEDALEDTRDSEMKLKAFPEVCNETMMALWEECKPCLKHTCMKFYARVCRSGSGLVGQQLEEFLNQSSPFYFWMNGDRIDSLLESDRQQSQVLDAMQDSFARASGIIDTLFQDRFFARELHDPHYFSPIGFPHKRPHFLYPKSRLVRSLMSPSHYGPPSFHNMFQPFFEMIHQAQQAMDVQLHSPAFQFPDVDFLREGEDDRTVCKEIRRNSTGCLKMKGQCEKCQEILSVDCSTNNPAQANLRQELNDSLQVAERLTEQYKELLQSFQSKMLNTSSLLEQLNDQFNWVSQLANLTQGEDKYYLRVSTVTTHSSDSEVPSRVTEVVVKLFDSDPITVVLPEEVSKDNPKFMDTVAEKALQEYRRKSRAE
modifications: full-length
B4: Q8BSL7 (protein, UniProt Q8BSL7 1-181, looked up)
chain: MGNVFEKLFKSLFGKKEMRILMVGLDAAGKTTILYKLKLGEIVTTIPTIGFNVETVEYKNISFTVWDVGGQDKIRPLWRHYFQNTQGLIFVVDSNDRERVNEAREELTRMLAEDELRDAVLLVFVNKQDLPNAMNAAEITDKLGLHSLRQRNWYIQATCATSGDGLYEGLDWLSNQLKNQK
modifications: full-length
B5: P05784 (protein, UniProt P05784 1-423, looked up)
chain: MSFTTRSTTFSTNYRSLGSVRTPSQRVRPASSAASVYAGAGGSGSRISVSRSVWGGSVGSAGLAGMGGIQTEKETMQDLNDRLASYLDKVKSLETENRRLESKIREHLEKKGPQGVRDWGHYFKIIEDLRAQIFANSVDNARIVLQIDNARLAADDFRVKYETELAMRQSVESDIHGLRKVVDDTNITRLQLETEIEALKEELLFMKKNHEEEVQGLEAQIASSGLTVEVDAPKSQDLSKIMADIRAQYEALAQKNREELDKYWSQQIEESTTVVTTKSAEIRDAETTLTELRRTLQTLEIDLDSMKNQNINLENSLGDVEARYKAQMEQLNGVLLHLESELAQTRAEGQRQAQEYEALLNIKVKLEAEIATYRRLLEDGEDFSLNDALDSSNSMQTVQKTTTRKIVDGRVVSETNDTRVLRH
modifications: full-length
B6: P24270 (protein, UniProt P24270 1-527, looked up)
chain: MSDSRDPASDQMKQWKEQRASQRPDVLTTGGGNPIGDKLNIMTAGSRGPLLVQDVVFTDEMAHFDRERIPERVVHAKGAGAFGYFEVTHDITRYSKAKVFEHIGKRTPIAVRFSTVTGESGSADTVRDPRGFAVKFYTEDGNWDLVGNNTPIFFIRDAILFPSFIHSQKRNPQTHLKDPDMVWDFWSLRPESLHQVSFLFSDRGIPDGHRHMNGYGSHTFKLVNADGEAVYCKFHYKTDQGIKNLPVGEAGRLAQEDPDYGLRDLFNAIANGNYPSWTFYIQVMTFKEAETFPFNPFDLTKVWPHKDYPLIPVGKLVLNKNPVNYFAEVEQMAFDPSNMPPGIEPSPDKMLQGRLFAYPDTHRHRLGPNYLQIPVNCPYRARVANYQRDGPMCMHDNQGGAPNYYPNSFSAPEQQRSALEHSVQCAVDVKRFNSANEDNVTQVRTFYTKVLNEEERKRLCENIAGHLKDAQLFIQKKAVKNFTDVHPDYGARIQALLDKYNAEKPKNAIHTYTQAGSHMAAKGKANL
modifications: full-length

Each molecule was assayed on CA19-9 modified proteins (assay: CA19-9 IP/MS (iTRAQ) of organoid conditioned media after Dox treatment). Details: CA19-9 IP/MS relative abundance; A217 (genetic negative) organoid conditioned media, 0H (before treatment), IP with NS19-9; reference channel = 1.
Design: species or system mouse

| Molecule | 17 0H NS19 |
| --- | --- |
| B1 | 1 |
| B2 | 1 |
| B3 | 1 |
| B4 | 1 |
| B5 | 1 |
| B6 | 1 |

Same assay, conditions: CA19-9 IP/MS relative abundance; A217 (genetic negative) organoid conditioned media, after 8 hours, IP with 5B1

| Molecule | 17 8H 5B1 |
| --- | --- |
| B1 | 2.195 |
| B2 | 4.685 |
| B3 | 3.943 |
| B4 | 1.57 |
| B5 | 2.148 |
| B6 | 3.427 |

Same assay, conditions: CA19-9 IP/MS relative abundance; A217 (genetic negative) organoid conditioned media, after 8 hours, IP with NS19-9

| Molecule | 17 8H NS19 |
| --- | --- |
| B1 | 0.499 |
| B2 | 0.438 |
| B3 | 1.306 |
| B4 | 0.495 |
| B5 | 0.888 |
| B6 | 0.606 |

Same assay, conditions: CA19-9 IP/MS relative abundance; A220 (C;R^LSL;F) organoid conditioned media, 0H (before treatment), IP with 5B1

| Molecule | 20 0H 5B1 |
| --- | --- |
| B1 | 1.789 |
| B2 | 4.172 |
| B3 | 1.709 |
| B4 | 1.376 |
| B5 | 1.589 |
| B6 | 3.106 |
